# Measurements reported in the supplement of paper PMC8728848.
# The other results are listed elsewhere or left out.
# B1: Thrombomodulin Lectin (Mus musculus) (protein)
# chain: LSALAKLQPTGSQCVEHECFALFQGPATFLDASQACQRLQGHLMTVRSSVAADVISLLLSQSSMDLGPWIGLQLPQGCDDPVHLGPLRGFQWVTGDNHTSYSRWARPNDQTAPLCGPLCVTVSTATEAAPGEPAWEEKPCETETQGFLCEFYFTASCRVDPIPVREDTKEEEGAGEPPVSPTPGSPTGPPSARPVLDEPRVPITQNPCPPLKECPPCAAPDLEGGPSVFIFPPKIKDVLMISLSPMVTCVVVDVSEDDPDVQISWFVNNVEVHTAQTQTHREDYNSTLRVVSALPIQHQDWMSGKAFACAVNNRALPSPIEKTISKPRGPVRAPQVYVLPPPAEEMTKKEFSLTCMITGFLPAEIAVDWTSNGRTEQNYKNTATVLDSDGSYFMYSKLRVQKSTWERGSLFACSVVHEGLHNHLTTKTISRSLGK
# Legend:
# Experiment in all cases: glycan array binding signal (z-score within array); higher = stronger binding
# Conditions in all cases: glycan notation: IUPAC condensed, linker removed
# [1] = target: Neu5Ac(a2-3)Gal(b1-4)GlcNAc(b1-2)[Neu5Ac(a2-3)Gal(b1-4)GlcNAc(b1-4)]Man(a1-3)[GlcNAc(b1-4)][Neu5Ac(a2-3)Gal(b1-4)GlcNAc(b1-2)[Neu5Ac(a2-3)Gal(b1-4)GlcNAc(b1-6)]Man(a1-6)]Man(b1-4)GlcNAc(b1-4)GlcNAc
# In short: (§1)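 The binding signal is a Z-score computed within each array. Data were drawn from 3228 arrays in the Consortium for Functional Glycomics database, restricted to those with a known protein sequence. Scores were averaged over arrays of the same protein sequence at different concentrations or buffers, and over linkers, and negative values can be taken as non-binding.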
# [2] = target: Neu5Ac(a2-3)Gal(b1-4)GlcNAc(b1-2)[Neu5Ac(a2-3)Gal(b1-4)GlcNAc(b1-4)]Man(a1-3)[GlcNAc(b1-4)][Neu5Ac(a2-3)Gal(b1-4)GlcNAc(b1-4)Man(a1-6)]Man(b1-4)GlcNAc(b1-4)GlcNAc
# In short: as §1
# [3] = target: Neu5Ac(a2-3)Gal(b1-4)GlcNAc(b1-2)[Neu5Ac(a2-3)Gal(b1-4)GlcNAc(b1-6)]Man(a1-6)[Neu5Ac(a2-3)Gal(b1-4)GlcNAc(b1-2)Man(a1-3)][GlcNAc(b1-4)]Man(b1-4)GlcNAc(b1-4)GlcNAc
# In short: as §1
# [4] = target: Neu5Ac(a2-3)Gal(b1-4)GlcNAc(b1-3)Gal
# In short: as §1
# [5] = target: Neu5Ac(a2-3)Gal(b1-4)GlcNAc(b1-3)Gal(b1-3)GlcNAc
# In short: as §1
# [6] = target: Neu5Ac(a2-3)Gal(b1-4)GlcNAc(b1-3)Gal(b1-4)GlcNAc
# In short: as §1
# [7] = target: Neu5Ac(a2-3)Gal(b1-4)GlcNAc(b1-3)Gal(b1-4)GlcNAc(b1-2)Man(a1-3)[Neu5Ac(a2-3)Gal(b1-4)GlcNAc(b1-3)Gal(b1-4)GlcNAc(b1-2)Man(a1-6)]Man(b1-4)GlcNAc(b1-4)GlcNAc
# In short: as §1
# [8] = target: Neu5Ac(a2-3)Gal(b1-4)GlcNAc(b1-3)Gal(b1-4)GlcNAc(b1-3)Gal(b1-4)GlcNAc
# In short: as §1
# [9] = target: Neu5Ac(a2-3)Gal(b1-4)GlcNAc(b1-3)Gal(b1-4)GlcNAc(b1-3)Gal(b1-4)GlcNAc(b1-2)Man(a1-3)[Neu5Ac(a2-3)Gal(b1-4)GlcNAc(b1-3)Gal(b1-4)GlcNAc(b1-3)Gal(b1-4)GlcNAc(b1-2)Man(a1-6)]GalNAc
# In short: as §1
# [10] = target: Neu5Ac(a2-3)Gal(b1-4)GlcNAc(b1-3)Gal(b1-4)GlcNAc(b1-3)GalNAc
# In short: as §1
# [11] = target: Neu5Ac(a2-3)Gal(b1-4)GlcNAc(b1-3)Gal(b1-4)GlcNAc(b1-3)[Neu5Ac(a2-3)Gal(b1-4)GlcNAc(b1-3)Gal(b1-4)GlcNAc(b1-6)]GalNAc
# In short: as §1
# [12] = target: Neu5Ac(a2-3)Gal(b1-4)GlcNAc(b1-3)Gal(b1-4)GlcNAc(b1-6)[Gal(b1-3)]GalNAc
# In short: as §1
# [13] = target: Neu5Ac(a2-3)Gal(b1-4)GlcNAc(b1-3)Gal(b1-4)[Fuc(a1-3)]GlcNAc
# In short: as §1
# [14] = target: Neu5Ac(a2-3)Gal(b1-4)GlcNAc(b1-3)GalNAc
# In short: as §1
# [15] = target: Neu5Ac(a2-3)Gal(b1-4)GlcNAc(b1-3)[Neu5Ac(a2-3)Gal(b1-4)GlcNAc(b1-6)]GalNAc
# In short: as §1
# [16] = target: Neu5Ac(a2-3)Gal(b1-4)GlcNAc(b1-6)GalNAc
# In short: as §1
# [17] = target: Neu5Ac(a2-3)Gal(b1-4)GlcNAc(b1-6)[Gal(b1-3)]GalNAc
# In short: as §1
# [18] = target: Neu5Ac(a2-3)Gal(b1-4)GlcNAc(b1-6)[Neu5Ac(a2-3)Gal(b1-3)]GalNAc
# In short: as §1
# [19] = target: Neu5Ac(a2-3)Gal(b1-4)GlcNAc6S
# In short: as §1
# [20] = target: Neu5Ac(a2-3)Gal(b1-4)[Fuc(a1-3)]GlcNAc
# In short: as §1
# [21] = target: Neu5Ac(a2-3)Gal(b1-4)[Fuc(a1-3)]GlcNAc(b1-2)Man
# In short: as §1
# [22] = target: Neu5Ac(a2-3)Gal(b1-4)[Fuc(a1-3)]GlcNAc(b1-3)Gal
# In short: as §1
# [23] = target: Neu5Ac(a2-3)Gal(b1-4)[Fuc(a1-3)]GlcNAc(b1-3)Gal(b1-4)GlcNAc
# In short: as §1
# [24] = target: Neu5Ac(a2-3)Gal(b1-4)[Fuc(a1-3)]GlcNAc(b1-3)Gal(b1-4)[Fuc(a1-3)]GlcNAc(b1-3)Gal(b1-4)[Fuc(a1-3)]GlcNAc
# In short: as §1
# [25] = target: Neu5Ac(a2-3)Gal(b1-4)[Fuc(a1-3)]GlcNAc(b1-3)GalNAc
# In short: as §1
# [26] = target: Neu5Ac(a2-3)Gal(b1-4)[Fuc(a1-3)]GlcNAc(b1-6)[Gal(b1-3)]GalNAc
# In short: as §1
# [27] = target: Neu5Ac(a2-3)Gal(b1-4)[Fuc(a1-3)]GlcNAc(b1-6)[Neu5Ac(a2-3)Gal(b1-3)]GalNAc
# In short: as §1
# [28] = target: Neu5Ac(a2-3)Gal(b1-4)[Fuc(a1-3)]GlcNAc6S
# In short: as §1
# [29] = target: Neu5Ac(a2-3)Gal6S(b1-4)GlcNAc
# In short: as §1
# [30] = target: Neu5Ac(a2-3)Gal6S(b1-4)[Fuc(a1-3)]GlcNAc
# In short: as §1
# Neu5Ac(a2-3)GalNAc = target: Neu5Ac(a2-3)GalNAc
# In short: as §1
# [31] = target: Neu5Ac(a2-3)GalNAc(b1-4)GlcNAc
# In short: as §1
# [32] = target: Neu5Ac(a2-3)[GalNAc(b1-4)]Gal(b1-4)Glc
# In short: as §1
# [33] = target: Neu5Ac(a2-3)[GalNAc(b1-4)]Gal(b1-4)GlcNAc
# In short: as §1
# [34] = target: Neu5Ac(a2-3)[GalNAc(b1-4)]Gal(b1-4)GlcNAc(b1-3)GalNAc
# In short: as §1
# [35] = target: Neu5Ac(a2-3)[Neu5Ac(a2-6)]GalNAc
# In short: as §1
# Neu5Ac(a2-6)Gal = target: Neu5Ac(a2-6)Gal
# In short: as §1
binder,measurement,setting,value
B1,glycan array binding signal (z-score),[1],1.05
same,glycan array binding signal (z-score),[2],-0.118
same,glycan array binding signal (z-score),[3],-1.34
same,glycan array binding signal (z-score),[4],-0.006
same,glycan array binding signal (z-score),[5],-0.763
same,glycan array binding signal (z-score),[6],0.675
same,glycan array binding signal (z-score),[7],-0.306
same,glycan array binding signal (z-score),[8],-0.325
same,glycan array binding signal (z-score),[9],0.803
same,glycan array binding signal (z-score),[10],1.05
same,glycan array binding signal (z-score),[11],0.399
same,glycan array binding signal (z-score),[12],1.24
same,glycan array binding signal (z-score),[13],0.786
same,glycan array binding signal (z-score),[14],-0.462
same,glycan array binding signal (z-score),[15],1.22
same,glycan array binding signal (z-score),[16],-0.63
same,glycan array binding signal (z-score),[17],-0.65
same,glycan array binding signal (z-score),[18],-0.743
same,glycan array binding signal (z-score),[19],-0.422
same,glycan array binding signal (z-score),[20],-1.84
same,glycan array binding signal (z-score),[21],1.18
same,glycan array binding signal (z-score),[22],-0.357
same,glycan array binding signal (z-score),[23],0.227
same,glycan array binding signal (z-score),[24],-0.936
same,glycan array binding signal (z-score),[25],1.67
same,glycan array binding signal (z-score),[26],-0.561
same,glycan array binding signal (z-score),[27],-0.316
same,glycan array binding signal (z-score),[28],-0.4
same,glycan array binding signal (z-score),[29],0.309
same,glycan array binding signal (z-score),[30],0.298
same,glycan array binding signal (z-score),Neu5Ac(a2-3)GalNAc,-0.082
same,glycan array binding signal (z-score),[31],-0.559
same,glycan array binding signal (z-score),[32],-0.568
same,glycan array binding signal (z-score),[33],-0.509
same,glycan array binding signal (z-score),[34],2.15
same,glycan array binding signal (z-score),[35],0.341
same,glycan array binding signal (z-score),Neu5Ac(a2-6)Gal,0.205

# Two consecutive records already listed, quoted:
binder,measurement,setting,value
B1,glycan array binding signal (z-score),[24],-0.936
same,glycan array binding signal (z-score),[25],1.67
